The source of these data is paper PMC7873015.

For this test, the target named is T1, receptor-interacting protein 3 (RIP3) (rat (endogenous in H9c2)) (UniProt Q9Z2P5).
T1 sequence: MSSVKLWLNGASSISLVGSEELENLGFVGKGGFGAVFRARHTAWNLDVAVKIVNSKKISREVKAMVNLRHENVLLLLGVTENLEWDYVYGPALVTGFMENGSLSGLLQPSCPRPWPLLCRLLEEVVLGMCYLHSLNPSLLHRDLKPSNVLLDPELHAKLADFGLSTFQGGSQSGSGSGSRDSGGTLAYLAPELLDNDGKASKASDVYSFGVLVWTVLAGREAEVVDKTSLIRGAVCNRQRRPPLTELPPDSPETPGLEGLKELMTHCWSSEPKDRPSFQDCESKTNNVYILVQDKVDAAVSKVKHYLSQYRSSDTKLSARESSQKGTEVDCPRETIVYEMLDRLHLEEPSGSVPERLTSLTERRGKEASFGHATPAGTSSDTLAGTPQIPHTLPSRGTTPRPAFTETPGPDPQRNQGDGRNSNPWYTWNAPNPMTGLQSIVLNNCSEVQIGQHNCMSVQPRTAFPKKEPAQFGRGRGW
Briefly: co-IP; endogenous RIP3 immunoprecipitated with anti-RIP3 (normal rabbit IgG as control) from lysates of H9c2 cells treated with DMSO or the indicated concentrations of vinblastine for 48 h; protein A/G-agarose beads, 4 °C overnight; immunoblot with a RIP1 antibody.

These are yes or no findings as the source states them, for the method shown. Binding seen in cells or lysates may run through a third protein. A result given as binding can be weak or reduced; the word gives no strength.

Consider “receptor-interacting protein 1 (RIP1) (rat (endogenous in H9c2))”, for which the binding result is listed as “binds”.
